PubChem BioAssay AID1259254 | NCATS | 2017
The whole screen tested about 59,000 reagents; this is a part drawn at random. About 1,550 of all reagents (2.6%) were called active. 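G2 share is only a proxy for re-replication; each gene was hit by three separate siRNAs, and active genes were retested.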 The numbers tell different reagents against one gene apart. Not all columns of the deposit are shown. Reagent sequences are not shown. Not given: the amount of reagent.

Test: 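Gene knock-downs that lead to re-replication, shown by excess G2 DNA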 (primary screen)
Cells: human HCT116 colorectal cancer cells
Reagent: single siRNA against human genes
Timing: 3 days
Measured: 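Imaged Hoechst DNA stain sorts each cell into a cycle phase by DNA amount; per plate, G2 fraction set to 0% for non-targeting and 100% for GMNN siRNA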
Direction: G2 robust z-score and G2 cells, % of GMNN control: higher = more G2 cells, more excess DNA replication
Call rule: 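Active siRNAs have a G2 robust z of 5 or more median absolute deviations over the median, which in these data means about 38% or higher of GMNN control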

LRRC32 #1 — G2 robust z-score = 9.8; G2 cells, % of GMNN control = 71.9; activity call = active
LRRC32 #2 — G2 robust z-score = -0.491; G2 cells, % of GMNN control = -0.49; activity call = inactive
LRRC32 #3 — G2 robust z-score = 1.33; G2 cells, % of GMNN control = 12.4; activity call = inactive
CAPN7 #1 — G2 robust z-score = -0.927; G2 cells, % of GMNN control = -3.56; activity call = inactive
CAPN7 #2 — G2 robust z-score = -0.575; G2 cells, % of GMNN control = -1.08; activity call = inactive
CAPN7 #3 — G2 robust z-score = 0.481; G2 cells, % of GMNN control = 6.35; activity call = inactive
NMBR #1 — G2 robust z-score = 2.97; G2 cells, % of GMNN control = 23.9; activity call = inactive
NMBR #2 — G2 robust z-score = -0.892; G2 cells, % of GMNN control = -3.31; activity call = inactive
NMBR #3 — G2 robust z-score = 0.126; G2 cells, % of GMNN control = 3.85; activity call = inactive
TPSAB1 #1 — G2 robust z-score = -1.43; G2 cells, % of GMNN control = -7.08; activity call = inactive
TPSAB1 #2 — G2 robust z-score = -0.0918; G2 cells, % of GMNN control = 2.32; activity call = inactive
TPSAB1 #3 — G2 robust z-score = 0.338; G2 cells, % of GMNN control = 5.34; activity call = inactive
NRN1L #1 — G2 robust z-score = -0.494; G2 cells, % of GMNN control = -0.505; activity call = inactive
NRN1L #2 — G2 robust z-score = -0.678; G2 cells, % of GMNN control = -1.81; activity call = inactive
NRN1L #3 — G2 robust z-score = -0.24; G2 cells, % of GMNN control = 1.28; activity call = inactive

Called active, among the entries above:
LRRC32 #1 — G2 robust z-score = 9.8; G2 cells, % of GMNN control = 71.9; activity call = active

The results go on.
NOB1 #1 — G2 robust z-score = -0.234; G2 cells, % of GMNN control = 1.32; activity call = inactive
NOB1 #2 — G2 robust z-score = 0.0691; G2 cells, % of GMNN control = 3.45; activity call = inactive
NOB1 #3 — G2 robust z-score = 2.93; G2 cells, % of GMNN control = 23.6; activity call = inactive
PBX1 #1 — G2 robust z-score = -0.666; G2 cells, % of GMNN control = -1.72; activity call = inactive
PBX1 #2 — G2 robust z-score = -0.58; G2 cells, % of GMNN control = -1.12; activity call = inactive
PBX1 #3 — G2 robust z-score = -0.543; G2 cells, % of GMNN control = -0.85; activity call = inactive
SUPT6H #1 — G2 robust z-score = 3.12; G2 cells, % of GMNN control = 24.9; activity call = inactive
SUPT6H #2 — G2 robust z-score = 3.57; G2 cells, % of GMNN control = 28.1; activity call = inactive
SUPT6H #3 — G2 robust z-score = 11.2; G2 cells, % of GMNN control = 81.7; activity call = active
